Data on one molecule can be found in US20250034219A1 (MOZZA FOODS, published 2025).

Results are given in words; binding and its absence hold for the method and conditions named. Some entries that bind do so weakly or less than the wild type. Sequences can lack the tags named with a protein.

The assay addresses recombinant B. taurus κ-casein expressed from pMOZ1066 (GY1 signal peptide, κ-casein, FLAG tag, 6 histidine tag, HDEL peptide) (B. taurus). Put plainly: TEM with FLAG immunogold labelling of soy embryos; micelle of αS1, β and κ casein in vivo.

B1: recombinant B. taurus αS1-casein expressed from pMOZ1066 (GY1 signal peptide, αS1-casein, FLAG tag, 6 histidine tag, HDEL peptide) (protein)
chain: RPKHPIKHQGLPQEVLNENLLRFFVAPFPEVFGKEKVNELSKDIGSESTEDQAMEDIKQMEAESISSSEEIVPNSVEQKHIQKEDVPSERYLGYLEQLLRLKKYKVPQLEIVPNSAEERLHSMKEGIHAQQKEPMIGVNQELAYFYPELFRQFYQLDAYPSGAWYYVPLGTQYTDAPSFSDIPNPIGSENSEKTTMPLWDYKDDDDKHHHHHHHDEL
For B1, the binding result is recorded as “binds”.
